In patent US20220184177A1:
Results are given in words; binding and its absence hold for the method and conditions named. Some entries that bind do so weakly or less than the wild type.

Chains of the proteins cited; added tags and fusions are not shown.
UniProt P05412: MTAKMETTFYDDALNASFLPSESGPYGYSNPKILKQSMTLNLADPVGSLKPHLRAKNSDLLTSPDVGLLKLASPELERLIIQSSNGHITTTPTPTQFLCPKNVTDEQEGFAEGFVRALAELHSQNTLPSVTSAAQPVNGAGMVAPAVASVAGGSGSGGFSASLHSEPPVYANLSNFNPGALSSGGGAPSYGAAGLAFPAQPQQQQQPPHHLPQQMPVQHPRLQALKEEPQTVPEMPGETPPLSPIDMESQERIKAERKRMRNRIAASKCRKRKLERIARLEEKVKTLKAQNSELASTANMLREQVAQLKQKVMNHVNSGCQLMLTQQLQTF
UniProt P03372: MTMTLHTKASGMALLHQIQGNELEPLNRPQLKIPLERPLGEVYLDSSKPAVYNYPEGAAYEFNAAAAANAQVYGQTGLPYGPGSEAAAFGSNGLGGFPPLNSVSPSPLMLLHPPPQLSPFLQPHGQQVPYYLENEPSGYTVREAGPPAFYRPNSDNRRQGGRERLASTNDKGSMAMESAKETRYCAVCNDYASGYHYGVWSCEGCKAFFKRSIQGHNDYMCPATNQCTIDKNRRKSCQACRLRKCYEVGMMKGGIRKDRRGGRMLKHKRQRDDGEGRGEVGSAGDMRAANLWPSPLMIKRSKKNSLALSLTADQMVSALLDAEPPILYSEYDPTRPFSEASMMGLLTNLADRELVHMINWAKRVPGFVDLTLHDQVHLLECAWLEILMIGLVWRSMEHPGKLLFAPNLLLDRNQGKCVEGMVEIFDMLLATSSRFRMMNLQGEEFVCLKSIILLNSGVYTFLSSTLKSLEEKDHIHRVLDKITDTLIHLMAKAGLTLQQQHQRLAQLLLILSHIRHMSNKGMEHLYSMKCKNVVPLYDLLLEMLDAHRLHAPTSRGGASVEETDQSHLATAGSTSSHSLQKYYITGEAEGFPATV

How the values were obtained:
[1] = target: His-tagged recombinant c-Jun (UniProt P05412); assay: BLI
Estrogen Receptor α [2] = target: Estrogen Receptor α (UniProt P03372); assay: BLI binding curves on ERα
Estrogen Receptor α [3] = target: Estrogen Receptor α (UniProt P03372); assay: binding curves (FIG. 10A)
[4] = target: His-tagged recombinant c-Jun (UniProt P05412); assay: BLI (refers to Example 1)
[5] = target: His-tagged recombinant c-Jun (UniProt P05412); assay: BLI (Octet), His-tagged c-Jun captured on anti-His tips, peptide in solution

Measured: binding

RLQLMARLAEGTGLQIPPAAQQALQMSGSLAFGAVAEFSFVIDLQ (single biotin on the N-terminus) [CAPER peptide HCC1.4 (amino acid residues 356-400)]
binds: all assays above

RLQLMARLAEGTGLQIPPAAQQALQMSGSLAFGAVADLQTRLSQQ (single biotin on the N-terminus) [CAPER peptide HCC1.3 (amino acid residues 356-400)]
binds: all assays above
